Measured data: PubChem BioAssay AID1671195 (Yale University, 2021)
The whole screen tested about 22,000 reagents; shown is a random part of them. In the full data, about 1,510 (6.9%) got an active call. 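Active includes knockdowns raising or lowering LDL uptake; positive z-scores mean more uptake, negative mean less.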 The numbers tell different reagents against one gene apart.

Aim: 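Regulators of LDL receptor activity judged by labelled LDL uptake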 (primary screen)
Cells: human Huh7 hepatoma cells
Knock-down reagent: siRNA pool against human genes, 18 nM
Timing: about 2 to 2.5 days of knockdown, then 8 h LDL uptake
Conditions: DiI-labelled LDL at 30 µg/ml for 8 h, in lipoprotein-deficient serum medium
Measured: 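Fluorescent LDL signal imaged in cells, scaled to the plate median, robust z-score for each replicate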
Direction: robust z-score: higher = more LDL uptake after knockdown
Hit rule: 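Active when two or more replicates show a robust z-score above 2 or below -2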

gene | reagent | robust z-score, replicate 1 | robust z-score, replicate 2 | robust z-score, replicate 3 | activity call
RTN4RL2 | 1 | -0.573 | 0.257 | 0.402 | inactive
TRNAU1AP | 1 | -0.316 | 1.29 | 0.419 | inactive
LINC01010 | 1 | 1.96 | 0.891 | 1.17 | inactive
OR51G2 | 1 | 0.745 | 0.65 | 1.57 | inactive
SLC12A5 | 1 | -1.27 | -0.679 | -0.95 | inactive
PLA2G4A | 1 | -0.47 | -0.427 | 0.56 | inactive
NTMT2 | 1 | -0.163 | 1.13 | 0.466 | inactive
LMO4 | 1 | 0.887 | 1.09 | 1.13 | inactive
MYO5B | 1 | -0.418 | -0.255 | -0.0907 | inactive
NUDT16 | 1 | 2.23 | 2.56 | 1.24 | active
PPIAP78 | 1 | -1.24 | -1.16 | -0.751 | inactive
ELAVL2 | 1 | -1.17 | -1.23 | -0.936 | inactive
GBA1 | 1 | 1.09 | 0.932 | 0.788 | inactive
ADCY4 | 1 | -1.14 | -1.69 | -0.683 | inactive
KIF26B | 1 | -1.08 | -0.86 | -0.771 | inactive
KIF26B | 2 | -0.483 | -1.47 | -1.9 | inactive
TAF3 | 1 | 1.22 | 0.598 | 1.25 | inactive
LOC388291 (retired record) | 1 | -1.31 | -1.23 | -1.5 | inactive
LY86 | 1 | 2.8 | 1.84 | 0.864 | inactive
FAM86GP | 1 | 1.21 | 1.14 | 1.3 | inactive
LOC442508 (retired record) | 1 | 1.1 | 0.349 | -1.46 | inactive
MEX3C | 1 | 1.08 | -0.734 | -0.222 | inactive
GRAP2 | 1 | -0.731 | 0.993 | -0.624 | inactive
NOL12 | 1 | -0.578 | -0.128 | -0.137 | inactive
LDHC | 1 | 0.269 | 0.537 | 0.444 | inactive
HOXA2 | 1 | -0.431 | -0.279 | -0.517 | inactive
OR5C1 | 1 | 0.841 | 1.56 | 1.71 | inactive
LINC01128 | 1 | -0.101 | -0.211 | -0.159 | inactive

Not a retest: entries from further up.
gene | reagent | robust z-score, replicate 1 | robust z-score, replicate 2 | robust z-score, replicate 3 | activity call
OR51G2 | 1 | 0.745 | 0.65 | 1.57 | inactive
SLC12A5 | 1 | -1.27 | -0.679 | -0.95 | inactive
PLA2G4A | 1 | -0.47 | -0.427 | 0.56 | inactive
NTMT2 | 1 | -0.163 | 1.13 | 0.466 | inactive
